Some results were stated once for a whole list of compounds, not compound by compound. At least one structure is not confirmed: it was looked up by name or label, or the drawing left a doubt.
Tested on: I. scapularis nymphs, X. cheopis adults, and Ae. aegypti adults
Test: Initial screening against all three arthropods (Example 9)
Assay type: in vivo
Settings: 24 hours exposure; ticks, fleas, mosquitoes; listed as compound 3
Description: Valencene-13-aldehyde was prepared by oxidation of valencene with SeO2. […] Commercial samples of nootkatone for comparison were obtained from Bedoukian Research, Inc., Danbury, Conn. (semi-synthetic crystalline) and Frutarom, Inc. N.J. (from grapefruit oil). […] The compounds identified by an asterisk—nos.

## COc1cc(C(C)C)ccc1C [Compound 3, Methyl carvacrol]
  pesticidal activity in initial screening: ineffective

Source: patent US7129271B2, “Compounds for pest control and methods for their use” (The United States of America as represented by the …, priority 2000, dated 2006)
